Assay results as given in paper PMC6796953.

Sequences of proteins named here, by UniProt entry; tags and fusion partners are left off.
UniProt O88569: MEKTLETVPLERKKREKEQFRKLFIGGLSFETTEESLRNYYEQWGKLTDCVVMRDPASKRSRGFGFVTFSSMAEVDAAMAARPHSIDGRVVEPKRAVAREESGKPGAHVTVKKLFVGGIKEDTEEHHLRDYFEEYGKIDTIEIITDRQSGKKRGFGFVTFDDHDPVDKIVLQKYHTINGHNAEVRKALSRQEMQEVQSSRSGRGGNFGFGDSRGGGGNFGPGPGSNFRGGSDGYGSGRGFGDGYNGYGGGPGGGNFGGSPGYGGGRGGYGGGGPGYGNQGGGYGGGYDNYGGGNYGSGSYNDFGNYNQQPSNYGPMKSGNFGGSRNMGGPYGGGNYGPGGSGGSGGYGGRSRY
UniProt Q8BG05: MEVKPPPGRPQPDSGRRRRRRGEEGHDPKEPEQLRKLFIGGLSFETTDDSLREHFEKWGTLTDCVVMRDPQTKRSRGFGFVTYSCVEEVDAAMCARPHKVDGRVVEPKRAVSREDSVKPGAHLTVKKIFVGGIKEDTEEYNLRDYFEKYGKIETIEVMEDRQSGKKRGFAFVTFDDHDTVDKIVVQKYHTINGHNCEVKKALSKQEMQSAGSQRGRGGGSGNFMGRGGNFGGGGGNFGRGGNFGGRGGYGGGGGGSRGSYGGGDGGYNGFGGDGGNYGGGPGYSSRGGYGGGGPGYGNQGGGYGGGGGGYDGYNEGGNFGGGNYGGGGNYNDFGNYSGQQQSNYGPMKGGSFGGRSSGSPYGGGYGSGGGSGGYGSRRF
UniProt P29341: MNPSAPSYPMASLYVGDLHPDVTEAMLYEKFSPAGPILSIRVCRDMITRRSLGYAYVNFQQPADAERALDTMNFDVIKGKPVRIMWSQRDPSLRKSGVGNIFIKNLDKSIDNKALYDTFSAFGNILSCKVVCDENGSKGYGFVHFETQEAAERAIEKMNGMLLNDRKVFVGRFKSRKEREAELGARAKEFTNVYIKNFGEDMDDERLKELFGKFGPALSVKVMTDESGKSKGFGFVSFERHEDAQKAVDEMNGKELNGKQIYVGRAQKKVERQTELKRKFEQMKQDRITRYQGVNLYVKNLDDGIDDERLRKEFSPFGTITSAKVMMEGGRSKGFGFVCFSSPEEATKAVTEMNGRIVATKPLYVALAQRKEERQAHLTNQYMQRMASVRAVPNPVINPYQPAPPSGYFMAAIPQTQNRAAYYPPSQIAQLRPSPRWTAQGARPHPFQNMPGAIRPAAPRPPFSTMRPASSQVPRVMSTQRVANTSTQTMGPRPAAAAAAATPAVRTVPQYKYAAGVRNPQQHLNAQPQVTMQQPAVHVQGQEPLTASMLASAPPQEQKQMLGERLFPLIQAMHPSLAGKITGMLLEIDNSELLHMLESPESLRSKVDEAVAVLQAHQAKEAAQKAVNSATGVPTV

T1: Flag-mRbm14 (mouse) (UniProt Q8C2Q3)
T1 sequence: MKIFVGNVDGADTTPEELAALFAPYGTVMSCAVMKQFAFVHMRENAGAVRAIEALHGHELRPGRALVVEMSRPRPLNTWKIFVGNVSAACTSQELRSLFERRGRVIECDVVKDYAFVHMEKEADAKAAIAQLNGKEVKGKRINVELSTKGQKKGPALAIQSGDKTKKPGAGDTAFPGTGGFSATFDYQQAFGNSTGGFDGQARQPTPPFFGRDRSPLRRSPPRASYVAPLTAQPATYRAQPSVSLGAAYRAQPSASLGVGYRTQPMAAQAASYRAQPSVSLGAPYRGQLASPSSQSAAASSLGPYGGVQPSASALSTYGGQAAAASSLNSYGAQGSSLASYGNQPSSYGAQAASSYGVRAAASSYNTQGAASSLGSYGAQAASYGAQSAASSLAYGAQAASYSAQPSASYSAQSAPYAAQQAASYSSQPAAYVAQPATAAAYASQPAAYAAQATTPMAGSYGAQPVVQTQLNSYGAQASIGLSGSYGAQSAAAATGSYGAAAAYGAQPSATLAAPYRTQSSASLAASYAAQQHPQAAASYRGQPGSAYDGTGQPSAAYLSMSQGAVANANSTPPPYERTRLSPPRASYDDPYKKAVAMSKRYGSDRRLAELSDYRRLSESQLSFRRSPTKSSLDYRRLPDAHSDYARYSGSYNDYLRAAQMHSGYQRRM

B1: hnRNPH1 (mouse) (protein, UniProt O35737 1-449)
chain: MMLGAEGGEGFVVKVRGLPWSCSADEVQRFFSDCKIQNGAQGIRFIYTREGRPSGEAFVELESEDEVKLALKKDRETMGHRYVEVFKSNNVEMDWVLKHTGPNSPDTANDGFVRLRGLPFGCSKEEIVQFFSGLEIVPNGITLPVDFQGRSTGEAFVQFASQEIAEKALKKHKERIGHRYIEIFKSSRAEVRTHYDPPRKLMAMQRPGPYDRPGAGRGYNSIGRGAGFERMRRGAYGGGYGGYDDYNGYNDGYGFGSDRFGRDLNYCFSGMSDHRYGDGGSTFQSTTGHCVHMRGLPYRATENDIYNFFSPLNPVRVHIEIGPDGRVTGEADVEFATHEDAVAAMSKDKANMQHRYVELFLNSTAGASGGAYEHRYVELFLNSTAGASGGAYGSQMMGGMGLSNQSSYGGPASQQLSGGYGGGYGGQSSMSGYDQVLQENSSDFQSNIA
B2: hnRNPF (mouse) (protein, UniProt Q9Z2X1 1-415)
chain: MMLGPEGGEGYVVKLRGLPWSCSIEDVQNFLSDCTIHDGVAGVHFIYTREGRQSGEAFVELESEDDVKLALKKDRESMGHRYIEVFKSHRTEMDWVLKHSGPNSADSANDGFVRLRGLPFGCTKEEIVQFFSGLEIVPNGITLPVDPEGKITGEAFVQFASQELAEKALGKHKERIGHRYIEVFKSSQEEVRSYSDPPLKFMSVQRPGPYDRPGTARRYIGIVKQAGLDRMRSGAYSAGYGGYEEYSGLSDGYGFTTDLFGRDLSYCLSGMYDHRYGDSEFTVQSTTGHCVHMRGLPYKATENDIYNFFSPLNPVRVHIEIGPDGRVTGEADVEFATHEEAVAAMSKDRANMQHRYIELFLNSTTGASNGAYSSQVMQGMGVSAAQATYSGLESQSVSGCYGAGYSGQNSMGGYD
B3: hnRNPDL (mouse) (protein, UniProt Q9Z130 1-301)
chain: MEDMNEYSNIEEFAEGSKINASKNQQDDGKMFIGGLSWDTSKKDLTEYLSRFGEVVDCTIKTDPVTGRSRGFGFVLFKDAASVDKVLELKEHKLDGKLIDPKRAKALKGKEPPKKVFVGGLSPDTSEEQIKEYFGAFGEIENIELPMDTKTNERRGFCFITYTDEEPVKKLLESRYHQIGSGKCEIKVAQPKEVYRQQQQQQKGGRGAAAGGRGGARGRGRGQGQNWNQGFNNYYDQGYGNYNSAYGGDQNYSGYGGYDYTGYNYGNYGYGQGYADYSGQQSTYGKASRGGGNHQNNYQPY
B4: Nanog (mouse) (protein, UniProt Q80Z64 1-305)
chain: MSVGLPGPHSLPSSEEASNSGNASSMPAVFHPENYSCLQGSATEMLCTEAASPRPSSEDLPLQGSPDSSTSPKQKLSSPEADKGPEEEENKVLARKQKMRTVFSQAQLCALKDRFQKQKYLSLQQMQELSSILNLSYKQVKTWFQNQRMKCKRWQKNQWLKTSNGLIQKGSAPVEYPSIHCSYPQGYLVNASGSLSMWGSQTWTNPTWSSQTWTNPTWNNQTWTNPTWSSQAWTAQSWNGQPWNAAPLHNFGEDFLQPYVQLQQNFSASDLEVNLEATRESHAHFSTPQALELFLNYSVTPPGEI

target: T1, Flag-mRbm14 (mouse); experiment: affinity purification with mass spectrometry; Flag-mRbm14 or Flag-GFP expressed in mouse embryonic stem cells, immunoprecipitated with anti-Flag resin; shotgun mass spectrometry of the immunoprecipitates

Molecule	binding
hnRNPA2B1 (mouse) (from UniProt O88569 1-353)	binds
hnRNPA3 (mouse) (from UniProt Q8BG05 1-379)	binds
hnRNPK (mouse) (from UniProt P61979 1-463)	binds
hnRNPL1 (mouse)	binds
poly(A)-binding protein (Pabpc1) (from UniProt P29341 1-636)	binds
B1	binds
B2	binds
B3	binds
B4	no binding

These are yes or no findings as the source states them, for the method shown. In cells and extracts the contact can be indirect. Here binding means that the protein was enriched with, or labelled near, the bait; the list need not be complete. No binding means not detected with the bait. Where a sequence is shown, tags or fusion partners need not be part of it.
